Measured values from patent US11998014B1, “O-{1-[(3,5-dinitrobenzoyl)amino]propan-2-yl} (4-chlorophenyl)carbamothioate as an eco-friendly insecticidal agent against Spodoptera littoralis (boisd.)” (KING FAISAL UNIVERSITY, priority 2024, dated 2024).

Tested on: Spodoptera littoralis
Assay: Insecticidal leaf dip bioassay on S. littoralis larvae (castor bean leaf discs)
Type: in vivo, Spodoptera littoralis (cotton leafworm, laboratory strain)
Conditions: after 72 hours of treatment, probit (LDP-line) slope
Method: Five concentrations (200, 100, 50, 25, 12.5 ppm) were designed for this synthetic compound and the reference fenoxycarb's compound as the dynamic ingredients based on ppm via diluting the commercial formulation.
In this experiment, the synthetic compound was tested for its insecticidal bioactivity using the industry-standard leaf dip bioassay techniques. Preparation of the compound stocks to create […], 0.1 g of compounds 2 were dissolved in five mL of Dimethyl formamide & combined with 5 mL of distilled water. Until usage, the stocks were kept in a refrigerator. The target substance test results were noted & the concentrations needed to destroy 50% (LC50) of S. littoralis larvae were calculated. The target compound was employed in five different concentrations, and 0.1% Tween 80 was employed as a surfactant. Castor bean leaf discs (nine centimeters in diameter) were dipped in the concentration under test for ten seconds, then fed to 2th and 4th larvae, which were roughly the same size and housed in glass jars (five pound). Each action carried out 3 times with ten larvae each. The mortality equalized via Abbott's formula. Calculations of mortality setback line were measurably rummage via probity analysis. Harmfulness index was strongminded via sun equations. The mortality results of larval insect were estimated through employing probit analysis through a statistics (LDP-line) equation which estimate the LC50 values with 95% fiducially limits of lower, upper confidence limit and slope.

Row | SMILES | Slope (2nd instar larvae) | Slope (4th instar larvae)
1 | CCOC(=O)NCCOc1ccc(Oc2ccccc2)cc1 [fenoxycarb] | 0.298 ± 0.0808 | 0.225 ± 0.0870
2 | CC(CNC(=O)c1cc([N+](=O)[O-])cc([N+](=O)[O-])c1)OC(=S)Nc1ccc(Cl)cc1 (stereo not shown) [Compound 2, O-{1-[(3,5-dinitrobenzoyl)amino]propan-2-yl} (4-chlorophenyl)carbamothioate] | 0.246 ± 0.0793 | 0.297 ± 0.0893
